Source: paper PMC12411639

Sequences of proteins named here, by UniProt entry; tags and fusion partners are left off. Residues count along the entry.
UniProt O95881, residues 27-172: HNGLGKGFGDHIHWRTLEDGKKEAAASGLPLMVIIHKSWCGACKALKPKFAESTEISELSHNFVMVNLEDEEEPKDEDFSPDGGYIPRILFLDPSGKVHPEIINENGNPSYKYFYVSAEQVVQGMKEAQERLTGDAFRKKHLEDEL
UniProt P45974: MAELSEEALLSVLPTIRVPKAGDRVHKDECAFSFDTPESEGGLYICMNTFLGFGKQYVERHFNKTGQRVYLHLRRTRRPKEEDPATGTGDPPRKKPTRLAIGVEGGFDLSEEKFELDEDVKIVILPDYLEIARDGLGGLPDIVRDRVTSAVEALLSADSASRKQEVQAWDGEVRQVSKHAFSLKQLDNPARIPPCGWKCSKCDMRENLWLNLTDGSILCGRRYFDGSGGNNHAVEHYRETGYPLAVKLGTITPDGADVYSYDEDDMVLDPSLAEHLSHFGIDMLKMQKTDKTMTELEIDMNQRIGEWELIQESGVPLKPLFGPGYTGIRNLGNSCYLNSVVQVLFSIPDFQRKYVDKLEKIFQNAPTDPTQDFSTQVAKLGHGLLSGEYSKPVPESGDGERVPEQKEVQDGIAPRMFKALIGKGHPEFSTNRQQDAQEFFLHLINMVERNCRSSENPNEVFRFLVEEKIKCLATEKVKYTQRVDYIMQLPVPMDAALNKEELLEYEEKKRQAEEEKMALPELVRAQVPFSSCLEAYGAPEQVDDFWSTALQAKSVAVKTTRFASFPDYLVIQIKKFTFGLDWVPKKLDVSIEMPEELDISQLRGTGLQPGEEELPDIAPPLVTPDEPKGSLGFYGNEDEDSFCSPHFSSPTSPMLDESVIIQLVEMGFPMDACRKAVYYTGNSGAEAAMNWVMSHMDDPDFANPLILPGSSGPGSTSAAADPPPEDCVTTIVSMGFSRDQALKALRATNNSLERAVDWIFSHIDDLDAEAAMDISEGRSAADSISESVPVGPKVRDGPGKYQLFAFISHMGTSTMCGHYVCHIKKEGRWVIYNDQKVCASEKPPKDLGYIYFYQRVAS

Target: TXNDC12, bait of the Co-IP coupled with mass spectrometry (UniProt O95881)
Assay: affinity purification with mass spectrometry; Co-IP of TXNDC12; interacting proteins separated on SDS-polyacrylamide gels, selected bands excised, digested with trypsin, tandem mass spectrometry

binding: binds
Substance: USP5, identified by mass spectrometry in the TXNDC12 co-immunoprecipitate (from UniProt P45974 1-858) (enzyme)

These are yes or no findings as the source states them, for the method shown. Binding seen in cells or lysates may run through a third protein. These calls come from enrichment with a bait or labelling near it, and not all partners need be listed.
